Experimental data published in publication PMC7360063, “Brassinosteroids regulate root meristem development by mediating BIN2-UPB1 module in Arabidopsis” (PLoS Genetics, 2020).

T1: UPB1-cYFP (Arabidopsis) (UniProt O22901)
T1 sequence: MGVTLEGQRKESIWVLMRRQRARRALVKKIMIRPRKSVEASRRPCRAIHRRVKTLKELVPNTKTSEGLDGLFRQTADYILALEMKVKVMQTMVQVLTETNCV

B1: His-SUMO-UPB1 (natural protein, Arabidopsis, UniProt O22901 1-102, looked up)
chain: T1 sequence
notes: UPB1, Arabidopsis, At2g47270; The phosphorylation methods speak of a 6x His tag; source: E. coli, purified

Key:
UPB1-cYFP (Arabidopsis) = target: T1, UPB1-cYFP (Arabidopsis); test: split reporter; BiFC: partner-nYFP (pXY103) and UPB1-cYFP (pXY104) co-transformed into N. benthamiana leaves; YFP fluorescence by microscopy
[1] = target: BIL1 in pGBKT7 (Arabidopsis); test: two-hybrid; Matchmaker GAL4 system, yeast AH109; UPB1 in pGADT7, BIN2, BIL1, BIL2 or BES1 in pGBKT7; growth on SD/-Leu-Trp-His

Row | Molecule | binding (UPB1-cYFP (Arabidopsis)) | binding [1]
1 | BIL1-nYFP (Arabidopsis) (enzyme) | no binding | –
2 | B1 | – | no binding

These are yes or no findings as the source states them, for the method shown. For some assays here: Binding seen in cells or lysates may run through a third protein. For some assays here: Sequences can lack the tags named with a protein.
